Experimental data: PubChem BioAssay AID1259308 (NCATS, 2017)
Purpose: 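Knock-downs that increase output of a recombinant reporter protein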 (primary screen). Cells: human HEK293 embryonic kidney cells stably expressing firefly luciferase (HEK-CMV-Luc2-Hygro). Reagent: single siRNA against human genes, 0.8 pmol siRNA per well. Time to read-out: 72 h. Measured: 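Reporter luminescence and viable-cell signal on separate replicate plates, given as percent of non-targeting control and median/MAD z-scores, plus per-cell luciferase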. Scale: total luciferase, z-score: higher = more reporter protein produced. Call rule: 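Active when the median/MAD z-score for overall luciferase is greater than 3; a gene was taken forward for validation with new siRNAs if at least two of its three siRNAs passed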. Calls: active = raised luciferase; inactive = no rise.
The whole screen tested about 59,000 reagents; below is a random part of them. Over the whole deposit, about 1,510 (2.6%) are marked active. 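Calls use total luciferase alone and ignore viability, so some active siRNAs may act by altering cell number.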 Further read-outs or replicates are left out here. Reagent sequences are not shown.

total luciferase, z-score, by gene and reagent
SMPDL3B: SID160738666 -0.496 inactive; SID160738669 0.475 inactive; SID160738670 0.465 inactive
SGIP1: SID160735082 -2.63 inactive; SID160751962 0.126 inactive; SID160751963 -0.089 inactive
TTLL11: SID160759601 -1.46 inactive; SID160759602 -1.02 inactive; SID160759603 -0.312 inactive
EPB41L2: SID160760678 -0.19 inactive; SID160760689 0.379 inactive; SID160760700 -0.286 inactive
PHF3: SID160736343 1.56 inactive; SID160736344 -0.483 inactive; SID160736345 0.141 inactive
IQUB: SID160759455 -0.223 inactive; SID160759456 -0.107 inactive; SID160759457 0.412 inactive
TSNAXIP1: SID160744436 -1.01 inactive; SID160744437 0.252 inactive; SID160744438 -0.345 inactive
SLC25A12: SID160720408 0.684 inactive; SID160720409 -0.322 inactive; SID160720410 0.698 inactive

Copied from the list.
Result of SGIP1 [SID160735082] under “total luciferase, z-score”: -2.63
Entry for SLC25A12 [SID160720410] under “total luciferase, z-score”: 0.698
EPB41L2 [SID160760700], activity call: inactive
TTLL11 [SID160759602], activity call: inactive
SLC25A12 [SID160720408], activity call = inactive

The results go on:
total luciferase, z-score, by gene and reagent
TRIP10: SID160721940 0.457 inactive; SID160721941 0.31 inactive; SID160721942 -0.625 inactive
NME8: SID160740586 0.0843 inactive; SID160740588 0.329 inactive; SID160740589 0.0274 inactive
TBCCD1: SID160743121 0.4 inactive; SID160743122 -0.491 inactive; SID160743123 -0.593 inactive
YY1AP1: SID160743341 1.94 inactive; SID160743342 0.294 inactive; SID160743344 -0.427 inactive
PPDPF: SID160748687 0.84 inactive; SID160748688 0.327 inactive; SID160748689 2.18 inactive
